Results as given in paper doi:10.1101/2023.05.09.540055.
These are yes or no findings as the source states them, for the method shown. In cells and extracts the contact can be indirect. Some binding calls cover weakened binding; strength is not graded here. Tags and fused reporters may be left off the sequences shown.

Molecular target: T1, 3xFLAG-SRSF7 (serine/arginine-rich splicing factor 7) (UniProt Q8BL97)
T1 sequence: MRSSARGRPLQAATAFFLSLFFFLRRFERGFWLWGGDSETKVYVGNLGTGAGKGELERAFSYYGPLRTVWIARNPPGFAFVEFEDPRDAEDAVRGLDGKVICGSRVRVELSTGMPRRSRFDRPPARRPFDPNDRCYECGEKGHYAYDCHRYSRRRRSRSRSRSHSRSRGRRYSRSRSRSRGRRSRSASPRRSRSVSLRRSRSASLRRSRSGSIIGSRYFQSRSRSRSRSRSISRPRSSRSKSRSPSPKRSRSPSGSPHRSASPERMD
Test: co-IP

B1: KMT5a (SET8), H4K20me1 histone methyltransferase (enzyme, UniProt Q2YDW7 1-349)
chain: MARGRKMCKPRAVEAAAAAVAATAPGPEMVEQRGPGRPRSDGENVFAGQSKIYAYMSPNKCSAMRSPLQEENSVAHHEVKCPGKPLAGIYRKREEKRNTGNVIRSAVKSDEQKSKDTRRGPLAPFPNQKSEAAEPPKTPPPSCDSTNVAVAKQALKKSLKGKQAPRKKSQGKTQQNRKLTDFYPVRRSSRKSKAELQSEERKKNELIESGKEEGMKIDLIDGKGRGVIATKQFSRGDFVVEYHGDLIEITDAKKREALYVQDPSTGCYMYYFQYLSKTYCVDATQETNRLGRLINHSKCGNCQTKLHDIDGVPHLILIASRDIAAGEELLYDYGDRSKASIEAYPWLKH
**Q.** How did the binding turn out when B1 was run?
**A.** binds
